Some of the results follow. Repeats in this data set agree poorly, so a single value says little.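 Fusion between ACE2-bearing and full-length-spike-bearing U2OS cells was measured by imaging as the percentage of nuclei with both cell types' fluorescent markers. An inhibitory hit is a non-toxic compound whose fusion z-score is below -3, more than three standard deviations beneath the plate's DMSO wells.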
tested on: U2OS ACE2 x SARS-CoV-2 spike co-culture; assay: cell-cell fusion (fraction fused) z-score vs plate DMSO control; higher = more fusion; conditions: 30 µM; 5 h; toxicity class: non-toxic, passed QC

Compound	cell-cell fusion (z-score)
Cc1cc(O)cc(C)c1Cl	inactive: 0.227
N[C@@H](Cc1ccc(O)c(O)c1)C(=O)O [Levodopa]	inactive: 3.01
CCn1cnc2c(Nc3cccc(Cl)c3)nc(N[C@@H]3CCCC[C@@H]3N)nc21.Cl	inactive: 1.56
COc1cc2nc(N(C)CCCNC(=O)C3CCCO3)nc(N)c2cc1OC.Cl (stereo not drawn) [Alfuzosin hydrochloride]	inactive: 1.66
O=C(O)Cc1c[nH]c2ccc(O)cc12 [5-Hydroxyindolacetic acid]	inactive: 1.05
C=C[C@@](C)(O)CCC1C(=C)C[C@H](OC(C)=O)C2C(C)(C)CCCC12C (stereo partly drawn)	inactive: 2.04
CCC[C@@H]1C[C@@H](C(=O)N[C@H]([C@H]2O[C@H](SC)[C@H](O)[C@@H](O)[C@H]2O)[C@H](C)O)N(C)C1.Cl	inactive: -1.11
CC(C)(O)[C@@H]1[C@H]2OC(=O)[C@@H]1[C@]1(O)C[C@H]3O[C@]34C(=O)O[C@H]2[C@]14C	inactive: 1.4
c1ccc(C(NCc2cccnc2)(c2ccccc2)c2ccccc2)cc1	inactive: 3.7
COc1ccc(CNC(=O)Nc2ncc([N+](=O)[O-])s2)cc1	inactive: 0.384
CN(C)c1ccccc1CN1CCCN(Cc2ccccc2N(C)C)C1c1ccncc1	inactive: 3.1
CNC(=O)[C@H]1O[C@@H](n2cnc3c(NCc4ccc(N)cc4)ncnc32)C(O)[C@H]1O (stereo partly drawn)	inactive: 0.856
NC(=O)COc1c(F)cc(SCCNS(=O)(=O)c2ccccc2)cc1F	inactive: 0.0767
O=c1cc(-c2ccccc2)oc2c(O)c(O)ccc12	inactive: 1.93
CC(C)(C)NC(=O)N[C@H](C(=O)N1C[C@H]2[C@@H]([C@H]1C(=O)NC(CC1CCC1)C(=O)C(N)=O)C2(C)C)C(C)(C)C (stereo partly drawn) [Boceprevir]	inactive: 0.875
CO[C@H]1[C@H](O)[C@@H](O[C@H]2CC[C@]3(C=O)C4CC[C@]5(C)[C@@H](C6=CC(=O)OC6)CC[C@]5(O)C4CC[C@@H]3C2)O[C@@H](C)[C@@H]1O (stereo partly drawn)	inactive: 1.47
Cc1ncc([N+](=O)[O-])n1CC(O)CCl (stereo not drawn)	inactive: 1.22
O=S(=O)([O-])c1cc(N=C=S)ccc1/C=C/c1ccc(N=C=S)cc1S(=O)(=O)[O-].[Na+].[Na+]	inactive: 0.793
O=C1OCCN1/N=C/c1ccc([N+](=O)[O-])o1	inactive: 0.847
CC(=O)C(C)=O [2,3-Butanedione]	inactive: 2.57
O=C(O)c1ccccc1 [Benzoic acid]	inactive: 1.92
COC1O[C@@H]2O[C@]3(C)CC[C@H]4[C@H](C)CC[C@@H]([C@H]1C)[C@@]24OO3 (stereo partly drawn)	inactive: 3.38
O=C(/C=C/c1ccc(O)cc1)c1ccccc1O	inactive: -0.575
CC(C)(C)NC[C@H](O)COc1ccccc1C1CCCC1.O=S(=O)(O)O	inactive: 1.75

Compound	cell-cell fusion (z-score)
Nc1ncnc2c1ncn2C1O[C@H](COP(=O)(O)O)[C@@H](O)[C@H]1O (stereo partly drawn)	inactive: 1.98
CNC(=O)c1ccccc1Sc1ccc2c(/C=C/c3ccccn3)n[nH]c2c1 [Axitinib]	inactive: 2.57
O=c1cc(-c2ccc(O)cc2)oc2cc(O)cc(O)c12 [Apigenin]	inactive: -0.532
COc1ccc(-c2cc(=O)c3cc(OC)ccc3o2)cc1	inactive: 2.69
Cc1cccc2c3c(ccc12)C1=C(C(=O)C3=O)C(C)CO1 (stereo not drawn)	inactive: 1.97
COc1cc(N)c(Cl)cc1C(=O)OCCN1CCCCC1	inactive: 2.62
COc1c(-c2coc3cc4c(cc3c2=O)CC(O)C(C)(C)O4)ccc2c1C=CC(C)(C)O2 (stereo not drawn)	active: -6.56
CC(C)c1cccc(C(C)C)c1O [Propofol]	inactive: 4.81
CC(C)c1cccc(C(C)C)c1O	inactive: 4.49
CS(=O)(=O)c1cccc(CNc2nc(Nc3ccc4c(c3)CCC(=O)N4)ncc2C(F)(F)F)c1	active: -4.86
CC(=O)O[C@H]1CC[C@@]2(C)C(=CCC3C2CC[C@@]2(C)C3CC[C@@H]2C(C)CCCC(C)C)C1 (stereo partly drawn)	inactive: 2.05
CC(=O)[C@H]1CCC2C3CC=C4C[C@@H](O)CC[C@]4(C)C3CC[C@@]21C (stereo partly drawn)	inactive: 0.78
CCCc1c(-c2ccc(O)cc2)nn(-c2ccc(O)cc2)c1-c1ccc(O)cc1 [1,3,5-tris(4-hydroxyphenyl)-4-propyl-1H-pyrazole]	inactive: 4.19
CN1C(=O)CC[C@H]1c1cccnc1	inactive: 1.09
CNC(=O)c1ccc(C)c(-n2c(C)cc(OCc3ccc(F)cc3F)c(Br)c2=O)c1	inactive: 1.42
NS(=O)(=O)c1cccc2c1c([N+](=O)[O-])cc1nc([O-])c([O-])nc12.[Na+].[Na+] [NBQX disodium]	inactive: 3.1
O=C1C=CC(=O)C=C1 [p-Benzoquinone]	inactive: 0.247
CC(C)N(CCC(C(N)=O)(c1ccccc1)c1ccccn1)C(C)C (stereo not drawn) [Disopyramide]	inactive: 3.13
CC(C)OC(=O)CCC/C=C\C[C@@H]1[C@@H](CCC(O)CCc2ccccc2)[C@H](O)C[C@@H]1O (stereo partly drawn) [Latanoprost]	inactive: -2.85
CN1CCN(C2Cc3ccccc3Sc3ccc(Cl)cc32)CC1.O=C(O)/C=C\C(=O)O (racemic) [(±)-Octoclothepin maleate]	inactive: 0.645
Cl.c1ccc(CN(CC2=NCCN2)c2ccccc2)cc1 [Antazoline hydrochloride]	inactive: 2.86
Cc1ccnc(NS(=O)(=O)c2ccc(NC(=O)Nc3ccc(S(=O)(=O)Nc4nccc(C)n4)cc3)cc2)n1	inactive: 1.5
CC(=O)[C@@]1(O)CC[C@H]2[C@@H]3C[C@H](C)C4=CC(=O)CC[C@]4(C)[C@H]3CC[C@@]21C [Medroxyprogesterone]	inactive: 1.95
NC(=O)c1cnccn1 [Pyrazinamide]	inactive: 2.51

Reprinted from the results shown for reference:
Compound	cell-cell fusion (z-score)
CNC(=O)c1ccc(C)c(-n2c(C)cc(OCc3ccc(F)cc3F)c(Br)c2=O)c1	inactive: 1.42
NS(=O)(=O)c1cccc2c1c([N+](=O)[O-])cc1nc([O-])c([O-])nc12.[Na+].[Na+] [NBQX disodium]	inactive: 3.1
